In all, about 400,000 compounds went through this assay and about 5,500 (1.4%) were called active. Inconclusive results, whose numbers are uncertain, are shown with a selection of clear calls. Calls follow the shape of the dose curve; as a rule, active = well fitted cell-killing curve with a large enough effect; inconclusive = small, poorly fitted or top-dose-only effect, or effect the other way; inactive = flat fitted curve, though single readings scatter. Where the call is inconclusive, the potency comes from a doubtful curve fit.
Assay: qHTS assay for MDR1-selective chemotherapeutics: Primary screen using the parental adenocarcinoma cell KB-3-1; also: nearly all actives have a fitted effect of over 60% in size
Conditions: KB-3-1 viability, CellTiter-Glo ATP luminescence, 72 h; activity change, negative = cytotoxic: at 46.1 µM (top of the series)
How it was run: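 Screening of KB-3-1 cells (DMEM, 10% FBS, phenol-red free) ran from lowest to highest compound concentration; after 72 h at 37 °C viability was read luminescently and curves fitted.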
% is scaled to controls: 0 for no effect and ±100 for the full control effect; potency is read from the fitted curve at half-maximal effect.

SMILES	Potency	activity change, negative = cytotoxic
O=C1C=C(c2ccc(F)cc2OCc2ccccc2)C[C@@H](c2ccc(F)cc2)C1	inconclusive: 29.1 µM [cytotoxic, single point]	–
CCOc1ccc(NC(=O)Nc2cc(OCC(F)(F)F)cc(OCC(F)(F)F)c2)cc1	inconclusive: 14.6 µM [cytotoxic, partial curve, poor fit]	–
COc1ccc(C(C[N+](=O)[O-])n2nc(C)cc2C)cc1 (stereo not given)	inconclusive: 18.4 µM [cytotoxic, single point]	–
OC(Cn1ccnc1)c1ccc(Cl)cc1Cl (stereo not given)	inconclusive: 29.1 µM [cytotoxic, single point]	–
Cc1cc(-c2ccccc2)c2c3c(cn2n1)c(=O)n(C)c(=O)n3C	inconclusive: 29.1 µM [cytotoxic, single point]	–
CCOc1ncccc1C(=O)Nc1ccc(F)c(F)c1	–	inactive: 14.6%
Cc1nc2sc(C(=O)NCc3ccc(Cl)cc3)c(NC(=O)c3ccccc3)c2c(C)c1C	–	inactive: -1.85%
COc1ccc(S(=O)(=O)Nc2ccc3c(c2)N(C(C)=O)CCC3)cc1	–	inactive: -19.5%
CCC1Nc2ncnc(N3CCN(c4ccccc4)CC3)c2N(Cc2ccccc2)C1=O (stereo not given)	inconclusive: 16.4 µM [cytotoxic, single point]	–
CC(=O)Nc1ccc(C2=NNC(=Nc3ccc(S(=O)(=O)N4CCOCC4)cc3)SC2)cc1	inconclusive: 29.1 µM [cytotoxic, single point]	–
CCOc1cc(C2c3c(oc4ccccc4c3=O)C(=O)N2Cc2ccc3c(c2)OCO3)ccc1O (stereo not given)	–	inactive: -2.74%
Cc1nc(NCc2ccco2)c2c(C)c(C)sc2n1	active: 11.6 µM	–
N#Cc1ccc(OCC(=O)Nc2nc(-c3cccnc3)cs2)cc1	inconclusive: 18.4 µM [rising, partial curve, poor fit]	–
CCc1ccccc1NC(=O)CSc1nnc([C@@H]2CCCN2C(=O)OC(C)(C)C)o1	inconclusive: 29.1 µM [cytotoxic, single point]	–
Cc1ccccc1NC(=O)c1nc(-c2ccncc2)no1	–	inactive: -5.02%
Cc1nc2ccccc2c2oc(C(=O)NCCCN3CCCC(C)C3)cc12 (stereo not given)	inconclusive: 29.1 µM [cytotoxic, single point]	–
CCN(CC)CCCN=C1N[C@@H](c2cccc(C(F)(F)F)c2)C(C(=O)OC)=C(C)N1CC	inconclusive: 25.9 µM [cytotoxic, single point]	–
O=C(CSc1nnnn1C1CCCCC1)NNC(=O)c1ccco1	–	inactive: 7.06%
COC(=O)C1CCCN1C(=O)COc1ccc(Cl)cc1Br (stereo not given)	–	inactive: 2.44%
COc1cc(OC)cc(C(=O)N2CC(=O)Nc3ccccc32)c1	inconclusive: 0.651 µM [cytotoxic, full curve, poor fit]	–
c1ccc(OCCNc2ccn3nc(-c4ccccc4)cc3n2)cc1	–	inactive: 0%
COc1ccccc1Oc1coc2cc(OC(=O)N3CCOCC3)ccc2c1=O	inconclusive: 0.58 µM [rising, full curve, poor fit]	–
CCc1ccc(NC(=S)/N=C(\N)Nc2nc(C)c3cc(CC)ccc3n2)cc1	inconclusive: 29.1 µM [cytotoxic, single point]	–

3 entries out of the list, sorted by heavy-atom count, largest number first.
SMILES	Potency	activity change, negative = cytotoxic
CCc1ccc(NC(=S)/N=C(\N)Nc2nc(C)c3cc(CC)ccc3n2)cc1	inconclusive: 29.1 µM [cytotoxic, single point]	–
O=C(CSc1nnnn1C1CCCCC1)NNC(=O)c1ccco1	–	inactive: 7.06%
Cc1ccccc1NC(=O)c1nc(-c2ccncc2)no1	–	inactive: -5.02%

Next part

SMILES	Potency	activity change, negative = cytotoxic
O=[N+]([O-])c1ccc2nc(-c3ccccn3)[nH]c2c1	inconclusive: 32.6 µM [cytotoxic, single point]	–
O=C1C(Cl)=C(NCc2cccnc2)C(=O)c2ccccc21	inconclusive: 29.1 µM [cytotoxic, single point]	–
CCOC(=O)c1c(NC(=O)COC(=O)c2c(C)noc2C)sc2c1CCC2	inconclusive: 25.9 µM [cytotoxic, single point]	–
O=C(CCn1cccn1)Nc1ccc2c(c1)OCO2	–	inactive: 1.9%
CN(C(=O)COC(=O)c1ccccc1Nc1ccccc1)c1c(N)n(Cc2ccccc2)c(=O)[nH]c1=O	inconclusive: 29.1 µM [cytotoxic, single point]	–
CC(=O)Nc1ccccc1OCC(=O)NC1CCCCC1C (stereo not given)	–	inconclusive: -2.54%
COc1cc(OC)c(OC)cc1CNC(=O)c1ccc(COc2ccccc2)cc1	inconclusive: 16.4 µM [cytotoxic, single point]	–
CCCN1C(=O)/C(=C/c2ccc(C)s2)SC1=Nc1ccc(OC)cc1	–	inactive: -1.07%
Cc1nn(-c2ccccc2)c(Cl)c1C(=O)N1CCN(c2ncnc3c2cnn3-c2ccccc2)CC1	inconclusive: 23.1 µM [cytotoxic, single point]	–
CN(C)c1ccc(NC(=O)c2ccc(Cn3cc([N+](=O)[O-])cn3)cc2)cc1	active: 18.4 µM	–
O=C(CN1CCCCCCC1)NC(=O)NC1CCCCC1	inconclusive: 29.1 µM [cytotoxic, partial curve, poor fit]	–
COc1ccc(CNC(=O)c2cnn3c(C)c(Cc4ccc(F)cc4)c(C)nc23)cc1	–	inactive: -14.6%
Cc1ccc(C2=N/C(=C\c3cccs3)C(=O)N2Nc2ccccc2)cc1	inconclusive: 29.1 µM [cytotoxic, single point]	–
Cc1ccc(-c2cc(C(=O)Nc3ccc4c(c3)OCCO4)c3ccccc3n2)cc1	inconclusive: 23.1 µM [cytotoxic, single point]	–
C=CCOC(=O)C1=C(C)NC(SC)=C(C#N)C1c1cccs1 (stereo not given)	active: 11.6 µM	–
Cc1cc(C)c(NC(=O)Cn2c(=O)n(CCCCC(=O)NCc3ccccc3Cl)c(=O)c3ccccc32)c(C)c1	–	inactive: 17.1%
CCn1c(=O)cc(OCC(=O)N2CCN(c3cccc(C(F)(F)F)c3)CC2)c2ccccc21	inconclusive: 29.1 µM [cytotoxic, partial curve, poor fit]	–
O=C(NCC(c1cccnc1)N1CCN(c2ccccc2F)CC1)c1cccc(Cl)c1 (stereo not given)	inconclusive: 23.1 µM [cytotoxic, single point]	–
FC(F)(F)c1ccnc(Sc2n[nH]c(C(F)(F)F)n2)c1	–	inactive: -8.25%
COc1ccc(CCNC(=O)CSC(=O)c2ccccc2)cc1OC	inconclusive: 32.6 µM [rising, single point]	–
O=C(NNC(=O)c1ccncc1)Nc1cc(Cl)ccc1Cl	inconclusive: 1.64 µM [rising, full curve, poor fit]	–
CCC(=O)N(CCC(c1ccccc1)c1ccco1)Cc1cccs1 (stereo not given)	–	inactive: -18.4%

Source: PubChem BioAssay AID1347075 (National Center for Advancing Translational Sciences (NCATS), 2019)
